Assay results: PMC4338441, “Non-catalytic motor domains enable processive movement and functional diversification of the kinesin-14 Kar3” (eLife, 2015)
These are yes or no findings as the source states them, for the method shown. In cells and extracts the contact can be indirect. A yes stands for co-enrichment or nearness to the bait. Other partners may have been found. Where a sequence is shown, tags or fusion partners need not be part of it.

T1: Cik1–FLAG (native motor, affinity purification from yeast) (S. cerevisiae (S288C background)) (UniProt Q01649)
T1 sequence: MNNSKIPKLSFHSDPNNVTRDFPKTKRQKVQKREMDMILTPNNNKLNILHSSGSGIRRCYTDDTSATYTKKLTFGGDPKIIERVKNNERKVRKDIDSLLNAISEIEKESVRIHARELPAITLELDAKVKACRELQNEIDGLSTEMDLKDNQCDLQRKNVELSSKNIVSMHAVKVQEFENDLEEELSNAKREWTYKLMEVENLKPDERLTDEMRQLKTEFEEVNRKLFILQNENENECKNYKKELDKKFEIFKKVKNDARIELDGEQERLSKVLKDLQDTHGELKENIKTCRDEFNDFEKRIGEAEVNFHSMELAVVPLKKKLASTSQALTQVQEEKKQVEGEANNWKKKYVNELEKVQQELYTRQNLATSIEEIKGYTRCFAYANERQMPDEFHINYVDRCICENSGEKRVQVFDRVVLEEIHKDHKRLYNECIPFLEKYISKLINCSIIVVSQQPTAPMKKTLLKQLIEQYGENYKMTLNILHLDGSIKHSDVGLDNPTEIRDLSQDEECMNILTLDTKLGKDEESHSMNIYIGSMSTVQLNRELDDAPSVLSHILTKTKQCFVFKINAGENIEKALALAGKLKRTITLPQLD

B1: Kar3 (endogenous, co-purified with Cik1–FLAG) (protein, UniProt P17119 1-729)
chain: MESLPRTPTKGRSTQHLSTPSPKNDILAMNGHKRRNTTTPPPKHTLLKPQRTDIHRHSLASQSRISMSPNRELLKNYKGTANLIYGNQKSNSGVTSFYKENVNELNRTQAILFEKKATLDLLKDELTETKEKINAVNLKFETLREEKIKIEQQLNLKNNELISIKEEFLSKKQFMNEGHEIHLKQLAASNKKELKQMENEYKTKIEKLKFMKIKQFENERASLLDKIEEVRNKITMNPSTLQEMLNDVEQKHMLEKEEWLTEYQSQWKKDIELNNKHMQEIESIKKEIENTLKPELAEKKKLLTEKRNAYEAIKVKVKEKEEETTRLRDEVALKQKTNLETLEKIKELEEYIKDTELGMKELNEILIKEETVRRTLHNELQELRGNIRVYCRIRPALKNLENSDTSLINVNEFDDNSGVQSMEVTKIQNTAQVHEFKFDKIFDQQDTNVDVFKEVGQLVQSSLDGYNVCIFAYGQTGSGKTFTMLNPGDGIIPSTISHIFNWINKLKTKGWDYKVNCEFIEIYNENIVDLLRSDNNNKEDTSIGLKHEIRHDQETKTTTITNVTSCKLESEEMVEIILKKANKLRSTASTASNEHSSRSHSIFIIHLSGSNAKTGAHSYGTLNLVDLAGSERINVSQVVGDRLRETQNINKSLSCLGDVIHALGQPDSTKRHIPFRNSKLTYLLQYSLTGDSKTLMFVNISPSSSHINETLNSLRFASKVNSTRLVSRK
B2: Bim1 (endogenous, co-purified with Cik1–FLAG) (protein, UniProt P40013 1-344)
chain: MSAGIGESRTELLTWLNGLLNLNYKKIEECGTGAAYCQIMDSIYGDLPMNRVKFNATAEYEFQTNYKILQSCFSRHGIEKTVYVDKLIRCKFQDNLEFLQWLKKHWIRHKDESVYDPDARRKYRPIITNNSATKPRTVSNPTTAKRSSSTGTGSAMSGGLATRHSSLGINGSRKTSVTQGQLVAIQAELTKSQETIGSLNEEIEQYKGTVSTLEIEREFYFNKLRDIEILVHTTQDLINEGVYKFNDETITGHGNGNGGALLRFVKKVESILYATAEGFEMNDGEDELNDKNLGEHGTVPNQGGYANSNGEVNGNEGSNHDVIMQNDEGEVGVSNNLIIDEETF
B3: Bik1 (endogenous, co-purified with Cik1–FLAG) (protein, UniProt P11709 1-440)
chain: MDRYQRKIGCFIQIPNLGRGQLKYVGPVDTKAGMFAGVDLLANIGKNDGSFMGKKYFQTEYPQSGLFIQLQKVASLIEKASISQTSRRTTMEPLSIPKNRSIVRLTNQFSPMDDPKSPTPMRSFRITSRHSGNQQSMDQEASDHHQQQEFGYDNREDRMEVDSILSSDRKANHNTTSDWKPDNGHMNDLNSSEVTIELREAQLTIEKLQRKQLHYKRLLDDQRMVLEEVQPTFDRYEATIQEREKEIDHLKQQLELERRQQAKQKQFFDAENEQLLAVVSQLHEEIKENEERNLSHNQPTGANEDVELLKKQLEQLRNIEDQFELHKTKWAKEREQLKMHNDSLSKEYQNLSKELFLTKPQDSSSEEVASLTKKLEEANEKIKQLEQAQAQTAVESLPIFDPPAPVDTTAGRQQWCEHCDTMGHNTAECPHHNPDNQQFF

molecular target: T1, Cik1–FLAG (native motor, affinity purification from yeast) (S. cerevisiae (S288C background)); assay: affinity purification with mass spectrometry; Cik1–FLAG from yeast at different cell cycle stages; anti-FLAG M2 antibody on Dynabeads, buffer A with 150 mM KCl, 0.1% NP-40; on-bead LysC digest; three independent preparations

binding, binds:
B1, B2, B3
